# The other results are listed elsewhere or left out. These are further read-outs of the screen, such as a control signal, another cell line or another target. No call is given for them. Compounds called inactive in the main read-out are mostly missing here. The note in brackets gives the kind of curve behind each potency; many fits are weak.
# Experiment: qHTS Assay to Find Inhibitors of Chronic Active B-Cell Receptor Signaling
# Conditions: ABC-DLBCL IkBa-CBG/CBR reporter, luminescence ratio (green luciferase fused to IkBa over red control in TMD8 lymphoma cells), 4 h
# Outline: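 Doxycycline induced both beetle luciferases in TMD8 lymphoma cells; IKK-driven degradation limits the IkappaBalpha-fused green signal, while red luminescence normalises for cell number and nonspecific effects. Compounds tested up to 46 uM, 4 hrs.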
# [1] = measured here: CBR red luminescence, cell number
# [2] = measured here: IkBa-CBG green luminescence
compound,measurement,setting,value
COc1cccc(NC(=O)c2ccco2)c1,AC50,[1],"0.206 µM [falling, full curve]"
CN(c1ccccc1)S(=O)(=O)c1ccc(NC(=S)Nc2ccccc2)cc1,AC50,[1],"8.91 µM [rising, partial curve, poor fit]"
O=C(CCC(=O)Nc1nnc(C2CCCCC2)s1)Nc1ccc(F)cc1,AC50,[1],"5.62 µM [rising, single point]"
CC1(C)Cc2c(C#N)c(N3CCCC3)nc(-c3ccco3)c2CO1,AC50,[1],"0.708 µM [falling, full curve, poor fit]"
CC1CC(C)CN(S(=O)(=O)c2ccc3c(c2)CCN3C(=O)C2CC2)C1 (stereo not drawn),AC50,[1],"35.5 µM [rising, single point]"
COc1ccccc1N1CCN(C(=O)CSc2nnc3c4ccccc4nc(Cc4ccccc4)n23)CC1,AC50,[1],"0.116 µM [rising, full curve, poor fit]"
CC/C(=N\NC(=S)NC(C)C)c1ccc(OC)c(OC)c1,AC50,[1],"22.4 µM [falling, single point]"
same,AC50,[2],"22.4 µM [falling, single point]"
COc1cc(/C=N\NC(=O)c2ccc(Cn3nc([N+](=O)[O-])c(Cl)c3C)o2)ccc1O,AC50,[1],"16.4 µM [falling, single point]"
CCOC(=O)C1=C(c2cccc(Oc3ccccc3)c2)NC(=S)NC1C (stereo not drawn),AC50,[1],"32.6 µM [falling, partial curve, poor fit]"
O=C(CN(c1ccccc1)S(=O)(=O)c1ccccc1)Nc1ccccc1C(=O)NCc1ccco1,AC50,[1],"9.2 µM [falling, partial curve]"
O=S(=O)(c1ccc(C2CCCCC2)cc1)N1CCCC1,AC50,[1],"0.282 µM [rising, full curve, poor fit]"
Cc1ccc(NC(=O)COC(=O)c2sccc2C)cc1S(=O)(=O)N1CCOCC1,AC50,[1],"11.6 µM [falling, partial curve, poor fit]"
CCN1/C(=C/c2ccc3cc(C)ccc3[n+]2C)Sc2ccc3sccc3c21,AC50,[1],"12.6 µM [falling, partial curve, poor fit]"
Cc1ccc(C)c(S(=O)(=O)N2CCCOC2CNC(=O)C(=O)NC2CCCCC2)c1 (stereo not drawn),AC50,[1],"12.6 µM [falling, partial curve]"
COc1ccc(NC(=O)c2cc3ccc(O)cc3o/c2=N\O)cc1,AC50,[2],"15.8 µM [rising, partial curve, poor fit]"
Cc1cccc(-c2noc(CCC(=O)Nc3ccccc3)n2)c1,AC50,[1],"6.51 µM [rising, full curve, poor fit]"
Cc1sc2nc(-c3ccccc3)oc(=O)c2c1C,AC50,[1],"0.562 µM [falling, full curve]"

# Two records drawn at random from those above, as already listed:
compound,measurement,setting,value
Cc1cccc(-c2noc(CCC(=O)Nc3ccccc3)n2)c1,AC50,[1],"6.51 µM [rising, full curve, poor fit]"
COc1ccccc1N1CCN(C(=O)CSc2nnc3c4ccccc4nc(Cc4ccccc4)n23)CC1,AC50,[1],"0.116 µM [rising, full curve, poor fit]"
